Earlier results on 1 compound are cited in patent US20230218544A1, “TREATMENT METHODS AND FORMULATIONS” (Curtin University, priority 2020, published 2023).

The conditions of this series: cisplatin: in adults; cited from earlier work.

As to `NS(=O)(=O)c1cc(C(=O)O)c(NCc2ccco2)cc1Cl` [furosemide], the “ototoxicity induced hearing loss rate” value was 6-7%.
